Laboratory results published in the supplement of paper PMC11348887.
The other results are listed elsewhere or left out. Most entries show no effect beyond the scatter of the controls. Where a SMILES comes first, the peptide text is derived from it. [ ]: non-standard residue; d: D form. pGlu = O=C1CC[C@@H](C(=O)O)N1; Thz = O=C(O)[C@@H]1CSCN1

Tests used:
Conditions in all cases: 5 µM; treatment: days 7-14 after plating, readout day 21
[1] = system: hPSC-derived cortical neurons (WA09); experiment: nucleus area z-score vs screen plate; higher = larger nuclei (more mature)
[2] = system: hPSC-derived cortical neurons (WA09); experiment: total neurite length per nucleus (MAP2) z-score; higher = more neurite growth
[3] = system: hPSC-derived cortical neurons (WA09); experiment: nucleus roundness z-score vs screen plate; higher = rounder nuclei (more mature)
[4] = system: hPSC-derived cortical neurons (WA09); experiment: KCl-induced FOS+/EGR-1+ double-positive nuclei fraction z-score (KCl minus unstimulated); higher = stronger activity-induced IEG response

Row | Structure (SMILES) | nucleus area z-score [1] | total neurite length per nucleus (z-score) [2] | nucleus roundness z-score [3] | KCl-induced FOS+/EGR-1+ double-positive nuclei fraction z-score [4]
1 | O=C(Nc1ccccc1)c1cc([N+](=O)[O-])ccc1Cl | 0.59 | -1.02 | -1.68 | -0.767
2 | CCOC(=O)c1ccc(NC(=O)O[C@H]2[C@H](OC(=O)Nc3ccc4c(c3)OCO4)[C@@H](OC(=O)Nc3ccc4c(c3)OCO4)[C@@H](OC)O[C@@H]2CO)cc1 | 0.676 | 0.559 | 0.299 | 1.04
3 | Clc1ccc(NN=C(c2ccccc2)c2ccccn2)nc1 | -9.61 | -2.59 | -5.24 | 1.12
4 | CNC(=C[N+](=O)[O-])NCCSCc1csc(CN(C)C)n1 [Nizatidine] | -0.48 | 0.511 | 0.201 | 0.925
5 | O=C1CC[C@@H](C(=O)N2CSC[C@H]2C(=O)O)N1 [Pidotimod] ([pGlu]-[Thz]-OH) | 0.0919 | 0.884 | 0.319 | 0.496
